Measurements reported in PubChem BioAssay AID504808 (Drosophila RNAi Screening Center, 2011).
Assay: 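Genes whose loss lifts activity of an E2F-responsive reporter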 (primary screen). Cells: Drosophila S2 cells. Reagents: long dsRNA against Drosophila genes. Measurement: 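Firefly luciferase driven by E2F sites, normalised to Renilla luciferase on the same minimal promoter, measured by plate reader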. Scale: E2F firefly: higher = more E2F reporter activity; Renilla normaliser: higher = more normaliser reporter signal. Rule for the call: 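a knock-down counted as active when the firefly/Renilla E2F signal rose above 50%, a threshold chosen arbitrarily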.
The screen tested about 21,000 reagents; shown is an unselected part of those that have a named target and a result. In the full data, 18 (0.084%) got an active call. 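Raw counts without plate normalisation, one of two replicates; the ratio scores behind the calls were not deposited.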 Names joined by + are all predicted targets of the reagent. Not given: the amount of reagent, the time to read-out.

no.	target gene	dsRNA	E2F firefly, rep 1	Renilla normaliser, rep 1	activity call
1	CG14439	DRSC17931	1.09e5	6030	inactive
2	Pc	DRSC11873	1.24e5	6167	inactive
3	ND-49L	DRSC14437	87104	4929	inactive
4	nolo	DRSC03705	80329	3618	inactive
5	nolo	DRSC03719	1.03e5	4268	inactive
6	nolo	DRSC03720	1.17e5	4530	inactive
7	CG1468	DRSC17946	7254	764	inactive
8	CG14642	DRSC12228	87563	4267	inactive
9	Spt	DRSC07123	1.39e5	4829	inactive
10	knrl	DRSC11892	69152	3143	inactive
11	CG2975	DRSC00556	1.68e5	5494	inactive
12	Lapsyn	DRSC04249	82909	3917	inactive
13	CG7460	DRSC10850	1.75e5	10133	inactive
14	CG16815	DRSC02521	99744	4231	inactive
15	CG15764	DRSC18070	71222	4298	inactive
16	SLO2	DRSC06212	99216	3652	inactive
17	SLO2	DRSC06214	1.43e5	5167	inactive
18	SLO2	DRSC06216	1.48e5	4582	inactive
19	SLO2	DRSC06218	1.45e5	4347	inactive
20	SLO2	DRSC06219	1.07e5	4468	inactive
21	Ance-3	DRSC02648	1.12e5	4507	inactive
22	Ance-3	DRSC02649	99658	3791	inactive
23	CG6426	DRSC06985	1.50e5	5180	inactive
24	CG7194	DRSC10784	1.10e5	4068	inactive
25	CG17047	DRSC06648	1.16e5	4925	inactive
26	side-VI	DRSC12828	78262	3339	inactive
27	side-VI	DRSC12830	64524	3130	inactive
28	side-VI	DRSC14920	1.49e5	6162	inactive
29	side-VI	DRSC15624	1.23e5	5000	inactive
30	CG5267	DRSC06928	1.40e5	4866	inactive
31	Rab9Fb	DRSC19854	1.22e5	5869	inactive
32	APC4	DRSC18360	7394	796	inactive
33	CG43996	DRSC19456	2.15e5	7600	inactive
34	CG43996	DRSC19457	1.57e5	6859	inactive
35	Oga	DRSC15901	65811	3296	inactive
36	BBS8	DRSC00360	1.80e5	7007	inactive
37	CG3544	DRSC00613	71783	3358	inactive
38	alpha4GT2	DRSC15905	1.12e5	6756	inactive
39	CG34210	DRSC04579	96516	4027	inactive
40	sim	DRSC17054	1.09e5	5155	inactive
41	Papst2	DRSC10924	84398	3669	inactive
42	mRpL22	DRSC19915	2.32e5	7012	inactive
43	CG32444	DRSC11677	72412	3533	inactive
44	CG10053	DRSC12502	76002	3524	inactive
45	eIF3b	DRSC06900	1.03e5	4816	inactive
46	CG16727	DRSC15139	1.49e5	8144	inactive
47	sws	DRSC18843	60193	3594	inactive
48	CG45067	DRSC08414	1.04e5	4634	inactive
49	CG30286	DRSC04070	1.13e5	5032	inactive
50	CG43102	DRSC14797	96126	4580	inactive
51	CG43102	DRSC16239	1.01e5	4499	inactive
52	Zip99C	DRSC16320	1838	940	inactive
53	CG34357	DRSC12211	1.44e5	7443	inactive
54	CG34357	DRSC12238	1.15e5	5623	inactive
55	CG34357	DRSC12334	1.41e5	6984	inactive
56	CG15734	DRSC19701	1.47e5	6669	inactive
57	Sgp	DRSC02195	81784	3170	inactive
58	RpL28 + snoRNA:Or-CD12	DRSC08293	66727	4034	inactive
59	CG14105	DRSC10107	1.21e5	6726	inactive
60	CG2225	DRSC03722	91991	4236	inactive
61	CG2225	DRSC03723	92466	4435	inactive
62	sei	DRSC04713	79031	3344	inactive
63	drl	DRSC03523	73775	3569	inactive
64	Ssk	DRSC10756	73936	3619	inactive
65	CG33170	DRSC11854	1.46e5	7809	inactive
66	Syx16	DRSC20507	1.58e5	5536	inactive
67	Muc96D	DRSC13709	84718	2408	inactive
68	ng2	DRSC18803	1.12e5	5430	inactive
69	IFT54	DRSC15469	1.22e5	5382	inactive
70	CG13616	DRSC14619	95405	6502	inactive
71	CG34106	DRSC01578	1.46e5	5879	inactive
72	ca	DRSC15305	2000	968	inactive
73	ca	DRSC15306	1.21e5	6496	inactive
74	ca	DRSC16314	1.32e5	6892	inactive
75	CG10553	DRSC14254	94849	5226	inactive
76	mRpL38	DRSC19734	1.68e5	6244	inactive
77	Klp67A	DRSC11205	1.36e5	6094	inactive
78	CG31601	DRSC03678	1.10e5	4646	inactive
79	Naa20A	DRSC19579	1.78e5	6159	inactive
80	Spred	DRSC05976	172	34	inactive
81	kairos	DRSC19972	1.68e5	5488	inactive
82	CG15118	DRSC06540	79610	2973	inactive
83	CG12506	DRSC00347	1.76e5	6199	inactive
84	CG7519	DRSC11834	1.44e5	7093	inactive
